# Experimental data taken from PubChem BioAssay AID588499 (NMMLSC, 2011).
# The campaign covered roughly 360,000 compounds. About 610 (0.17%) were called active. This list was built around the results that the source calls inconclusive (neither active nor inactive); the mix of calls is not that of the screen. No stated cut-off is given here; in the data, active means inhibition above about 30%; inconclusive means no clear call, values can overlap the other calls; inactive means below that.
# System: Botulinum neurotoxin type A light chain protease (Clostridium botulinum A str. ATCC 3502)
# Assay: blockers of BoNT/A LC substrate cleavage – biochemical, flow cytometry, MLPCN library, primary screen (AID 588499); further: plate controls were buffer without enzyme for full effect and enzyme alone for no effect
# Settings: multiplex microsphere protease substrate cleavage, at 10 µM, stronger effect = higher value
row,SMILES,inhibition
1,CCOC(=O)c1ccc(S(=O)(=O)NNc2ccc(C(F)(F)F)cn2)cc1,inactive: 0.3%
2,COCCNC(=O)c1cc2c(c(-c3cccc(-c4cc5ccccc5o4)c3)n1)[C@H](CCO)N(S(=O)C(C)(C)C)C2 (stereo not given in full),inactive: -0.1%
3,C/C(=N\NC(=O)c1cccc(S(=O)(=O)N2CCOCC2)c1)c1cc2ccccc2o1,inactive: -0.4%
4,CCN(C(=O)COC(=O)c1ccc2c(c1)OCO2)c1c(N)n(Cc2ccccc2)c(=O)[nH]c1=O,inactive: -5.1%
5,COc1ccc(OC)cc1,inactive: -0.2%
6,FC(F)(F)c1ccc(-c2n[nH]c(=S)o2)nc1,inconclusive: 11.4%
7,O=C(NC(=S)Nc1ccccc1)c1cncc(C#Cc2ccccc2)c1,inconclusive: 3.6%
8,CCC1Oc2ccc(C)cc2N(CC(=O)NCCC2=CCCCC2)C1=O (stereo not given),inconclusive: 11.2%
9,O=Nc1ccc(O)c2ncccc12,inactive: -0.7%
10,O=Cc1ccc(-c2ccc(F)cc2)o1,inactive: -1.8%
11,O=C(CCC(=O)OCC(=O)c1ccc(Cl)cc1)NC1CCCCC1,inconclusive: -9.1%
12,C(=NN=C(NN=Cc1cccs1)NN=Cc1cccs1)c1cccs1,inactive: -0.1%
13,Cc1cc(C)c2c(=O)n(CC(=O)Nc3ccc(Cl)cc3)sc2n1,active: 47.9%
14,CCCCOc1ccc(C(=O)NCC2(c3ccccc3)CCOCC2)cc1,inconclusive: 0%
15,CCOC(=O)c1[nH]c2ccccc2c1NC(=O)c1nonc1C,inconclusive: 1.5%
16,COc1ccc(CC(=O)NCc2ccc3c(c2)cc(C)n3C)cc1,active: 91.3%
17,CN(C)CCCn1c(SCC(=O)Nc2sc3c(c2C#N)CCCC3)nnc1-c1ccncc1,inconclusive: -4%
18,COc1ccc(CCN=C(N)Nc2nc(C)cc(C)n2)cc1,inactive: -0.9%
19,O=C1[C@H]2CCC=C[C@H]2[C@H](c2cccc(Br)c2)N1Cc1ccccc1,inactive: -0.3%
20,Cn1c(Sc2ccc(C(F)(F)F)cc2[N+](=O)[O-])nnc1-c1ccccc1,inactive: 3.3%

# Reprinted at random: five compounds from above, in no set order.
row,SMILES,inhibition
14,CCCCOc1ccc(C(=O)NCC2(c3ccccc3)CCOCC2)cc1,inconclusive: 0%
20,Cn1c(Sc2ccc(C(F)(F)F)cc2[N+](=O)[O-])nnc1-c1ccccc1,inactive: 3.3%
3,C/C(=N\NC(=O)c1cccc(S(=O)(=O)N2CCOCC2)c1)c1cc2ccccc2o1,inactive: -0.4%
16,COc1ccc(CC(=O)NCc2ccc3c(c2)cc(C)n3C)cc1,active: 91.3%
11,O=C(CCC(=O)OCC(=O)c1ccc(Cl)cc1)NC1CCCCC1,inconclusive: -9.1%

# (more compounds)

row,SMILES,inhibition
1,Cn1ccc2c(-c3ccc(F)nc3)cc3c(c21)C1CCC3C1 (stereo not given),active: 50.3%
2,COc1ccc(OC)c(S(=O)(=O)N/N=C(/C)c2ccc3c(c2)OCO3)c1,inactive: 0.7%
3,CCOc1ccc(C2SCC(=O)Nc3c2c(=O)[nH]n3C2CCCCCC2)cc1 (stereo not given),inconclusive: -4.5%
4,CCOc1ccc(-c2nc(C#N)c(NCC3CCCO3)o2)cc1 (stereo not given),inconclusive: 0.8%
5,COc1ccccc1C1(CC(=O)Nc2nccs2)CCOC(C(C)C)C1 (stereo not given),inconclusive: 0.7%
6,CN(C(=O)COC(=O)c1cc(=O)[nH]c2ccccc12)c1ccccc1,inactive: -0.2%
7,CCOC(=O)N1CCN(C(=O)C[C@@H]2C[C@@]3(C(=O)OC)CCCCC=C3N(Cc3cccc4ccccc34)C2=O)CC1,inactive: -0.3%
8,CCCOC(=O)CCCCC1SCC(NC(=O)OC)C1NC(=O)OC (stereo not given),inactive: 0.7%
9,COc1ccccc1/C=N/NC(=O)c1csc(C)c1C,inactive: 0.8%
10,COCCN(CCOC)C(=O)C1CCN(c2ccc(S(=O)(=O)N3CCOCC3)cc2[N+](=O)[O-])CC1,inconclusive: -88.2%
11,Cc1cccc2sc(NC(=O)Cn3c(C)csc3=O)nc12,inactive: 0.6%
12,O=S(=O)(Nc1ccc(-c2ccc3nncn3n2)cc1)c1ccc(Cl)s1,inactive: 1.9%
13,Cc1ccc2ccccc2c1C(O)c1ncc(-c2cccc(F)c2)[nH]1 (stereo not given),inactive: -0.2%
14,CCN1CCN(c2ccc(NC(=O)c3cccc4ncccc34)cc2)CC1,inconclusive: 5%
15,Cc1ccc(S(=O)(=O)N2CCN(C(=O)CNC(=O)c3ccc(Cl)cc3)CC2)cc1,inactive: -0.9%
16,Cc1cccc(C=Nc2ccccc2C(N)=O)c1,inactive: -4.2%
17,CCNc1oc(-c2ccc(OC)cc2)nc1S(=O)(=O)c1ccc(Br)cc1,inconclusive: -3.1%
18,CCOC(=O)c1c(NC(C)=O)sc2c1CCC(C=O)=C2Sc1ccccc1,active: 50%
19,N#Cc1c(NC(=O)CSc2ncn[nH]2)sc2c1CCCCC2,inconclusive: 1.4%
20,O=C(NCC1CCCO1)c1cc2n(n1)C(C(F)(F)F)CC(c1ccc(Br)cc1)N2 (stereo not given),inconclusive: 0%

row,SMILES,inhibition
1,c1ccc(CN2CCOCCOCCOCCOCC2)cc1,inconclusive: 5.9%
2,CCc1nc2ccc(C(=O)N(C)Cc3ccccc3)cn2c1N(C)Cc1ccc(OC)cc1,inactive: -0.6%
3,Cc1ccc(C(=O)N2CCCC2)c(F)c1F,inconclusive: -3%
4,O=C(NCc1ccccc1Cl)c1cnccc1C(F)(F)F,inconclusive: -22.2%
5,CCN(CC)CCCN(C(=O)c1cccc(C)c1)c1nc(-c2ccc(OC)cc2)cs1,inconclusive: -2.4%
6,Cc1cc(Cl)c(OCCn2ccnc2)c(Br)c1,inconclusive: 6.4%
7,COc1cc(C)ccc1OCC(=O)OCC(=O)NCC1CCCCC1,inactive: 0.5%
8,COc1cnc(-c2ccccn2)nc1Sc1ccc(Cl)cc1,inconclusive: -7.4%
9,CCOc1ccc(OCC(=O)OCC(=O)NCC2CCCO2)cc1 (stereo not given),inactive: 0.2%
10,Nc1n[nH]c2cccc(Cl)c12,inconclusive: -22.8%
11,Cc1cc(C(=O)CN(Cc2ccc(F)cc2)S(=O)(=O)c2ccc3c(c2)OCCO3)c(C)n1C,inconclusive: -0.8%
12,COC(=O)[C@H](C)NC(=O)NCc1ccc(F)cc1,inconclusive: -0.4%
13,CCOc1c(Cl)cc(C(=O)Nc2ccccc2C(=O)O)cc1Cl,inconclusive: 6.9%
14,Cc1ccc(/C=N/NC(=O)c2ccc3c(c2)OCCO3)s1,inconclusive: 0.8%
15,CCS(=O)(=O)N1CCC(C(=O)NCc2cccc(OC)c2)CC1,inconclusive: -0.4%
16,CC(C)NC(=O)c1ccccc1-c1ccccc1,inconclusive: -0.3%
17,O=C(NC(=S)Nc1cccc2[nH]ncc12)c1ccccc1,inactive: -2%
18,CCCCNC(=O)C1(C)CCCCN1C(=O)c1ccc2c(c1)C(C)(C)CCC2(C)C (stereo not given),inactive: -0.4%
19,CCc1sc(C(=O)NCCCn2ccnc2)cc1Br,inactive: 0.7%
20,O=C(c1cccc2c1-c1ccccc1/C2=N/O)N1CCCCC1,inconclusive: -0.3%
